Measurements reported in PubChem BioAssay AID602196 (INSERM, 2012)

Assay: 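Genes whose knock-down alters cisplatin killing of lung cancer cells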
System: human A549 lung cancer cells
Knock-down reagent: siRNA pair against human genes
Duration: 48 h transfection before cisplatin; time from cisplatin to read-out not stated
Conditions: cisplatin at a dose killing half of control-siRNA cells; exact dose and duration not given
Detection: 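Cisplatin cell death as a shift from the 50% death seen with control siRNA; siRNAs toxic or growth-blocking alone scored 0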
Scale: two-siRNA summed score (-2 to +2): higher = both siRNAs protect from cisplatin killing; -2 means both sensitise; mean protection from cisplatin (shift in death) and protection from cisplatin (shift in death), siRNA C and protection from cisplatin (shift in death), siRNA D: higher = protection from cisplatin killing
Call rule: 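siRNAs harmful alone (LDH or WST-1) get 0; others get +1 for less and -1 for more cisplatin killing; genes are active when the two siRNAs give the same sign, summing to ±2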
Calls: active = both siRNAs shift cisplatin killing the same way; inactive = no consistent shift, or siRNA harmful alone
The whole screen tested about 23,000 reagents; below is a random part of them. Over the whole deposit, 455 (2%) got an active call. 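Active includes both protection and sensitisation; some change values fall well beyond the stated -50 to +50 range.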 A number with no mark means an inactive call. The numbers tell different reagents against one gene apart. The record does not give: the amount of reagent.

no.	Target gene	reagent	two-siRNA summed score (-2 to +2)	mean protection from cisplatin (shift in death) (%)	protection from cisplatin (shift in death), siRNA C (%)	protection from cisplatin (shift in death), siRNA D (%)
1	SGK2 (GeneID 10110)	1	0	5	7.3	2.8
2	ATP5PB (GeneID 515)	1	1	12.4	7.3	17.4
3	KCNE2 (GeneID 9992)	1	1	10	13.2	6.8
4	ADGRF1 (GeneID 266977)	1	0	12.2	14.5	10
5	ADGRF1 (GeneID 266977)	2	0	20	33.4	6.6
6	LOC389028	1	0	3.7	3.1	4.3
7	DEPDC4 (GeneID 120863)	1	0	6.2	8.2	4.1
8	LOC440524	1	1	9.3	2	16.5
9	KRTAP6-3 (GeneID 337968)	1	-1	-4.8	-16.6	6.9
10	RIMKLA (GeneID 284716)	1	0	-4.6	0.3	-9.4
11	LNX1 (GeneID 84708)	1	0	9.3	3.4	15.2
12	PRRX1 (GeneID 5396)	1	0	20.1	15.4	24.8
13	LORICRIN (GeneID 4014)	1	0	-5.1	10.9	-21
14	GNMT (GeneID 27232)	1	-1	-5.5	-22.9	12
15	IL17REL (GeneID 400935)	1	0	10.8	1.2	20.3
16	FCF1 (GeneID 51077)	1	0	1.9	1	2.8
17	TCTN3 (GeneID 26123)	1	0	3.6	6.8	0.4
18	TCTN3 (GeneID 26123)	2	0	11	3.1	18.9
19	TTC6 (GeneID 319089)	1	0	-2.3	-6.6	2
20	TTC6 (GeneID 319089)	2	0	9.8	15.2	4.4
21	MDH1B (GeneID 130752)	1	0	4.3	4.6	4.1
22	NCKAP5 (GeneID 344148)	1	0	24.4	36.4	12.5
23	LOC388652	1	1	13.5	10.4	16.6
24	LOC253820	1	0	17.8	0.3	35.3
25	SPACA7 (GeneID 122258)	1	0	8.5	8.2	8.7
26	LOC137107	1	0	0.2	-1.5	1.8
27	CPLX4 (GeneID 339302)	1	1	15.2	23.4	7
28	BHLHE40 (GeneID 8553)	1	0	14.1	24.3	3.9
29	NATD1 (GeneID 256302)	1	1	7.8	-0.2	15.7
30	LOC440237	1	0	4.9	3	6.8
31	UBC (GeneID 7316)	1	-1	-12.2	-22.2	-2.1
32	PHLDB1 (GeneID 23187)	1	-1	1.3	11.6	-9
33	CUL2 (GeneID 8453)	1	0	-24.1	-18.7	-29.5
34	PGAP4 (GeneID 84302)	1	0	5.7	11.9	-0.5
35	CARM1 (GeneID 10498)	1	0	-13.4	9.5	-36.4
36	FAM76B (GeneID 143684)	1	0	2.1	9.4	-5.3
37	NDUFA7 (GeneID 4701)	1	0	9.5	16.4	2.7
38	SSR4 (GeneID 6748)	1	-1	-9.8	-2.4	-17.2

Sorted by “protection from cisplatin (shift in death), siRNA D (%)” (lowest first): some entries from above
Target gene	reagent	two-siRNA summed score (-2 to +2)	mean protection from cisplatin (shift in death) (%)	protection from cisplatin (shift in death), siRNA C (%)	protection from cisplatin (shift in death), siRNA D (%)
DEPDC4 (GeneID 120863)	1	0	6.2	8.2	4.1
LOC389028	1	0	3.7	3.1	4.3
ADGRF1 (GeneID 266977)	2	0	20	33.4	6.6
KCNE2 (GeneID 9992)	1	1	10	13.2	6.8
ADGRF1 (GeneID 266977)	1	0	12.2	14.5	10
LOC440524	1	1	9.3	2	16.5
ATP5PB (GeneID 515)	1	1	12.4	7.3	17.4

Next results:
no.	Target gene	reagent	two-siRNA summed score (-2 to +2)	mean protection from cisplatin (shift in death) (%)	protection from cisplatin (shift in death), siRNA C (%)	protection from cisplatin (shift in death), siRNA D (%)
39	NDUFA3 (GeneID 4696)	1	0	-5	-4.1	-5.8
40	LOC441722 (GeneID 441722)	1	0	1.2	6.8	-4.4
41	PAGE2 (GeneID 203569)	1	1	21.8	31.1	12.5
42	CARM1LP (GeneID 100130873)	1	1	11.6	1.7	21.5
43	CIAO2A (GeneID 84191)	1	0	5.8	4.1	7.4
44	CIAO2A (GeneID 84191)	2	0	6.2	5.5	7
45	ARAP1 (GeneID 116985)	1	0	3.5	-2	9.1
46	ARTN (GeneID 9048)	1	0	-6.2	-9.9	-2.5
47	PRDM7 (GeneID 11105)	1	0	6.4	3.9	8.8
48	PRSS33 (GeneID 260429)	1	0	-0.3	11.2	-11.7
49	CASP5 (GeneID 838)	1	0	0.9	-7.5	9.4
50	LMBRD2 (GeneID 92255)	1	0	2	-5.8	9.9
51	FASTKD1 (GeneID 79675)	1	0	1.5	6.1	-3
52	CCL15 (GeneID 6359)	1	1	5.8	17	-5.3
53	OXA1L (GeneID 5018)	1	0	18.7	6.3	31.2
54	POLR2B (GeneID 5431)	1	0	-6.8	-0.4	-13.1
55	ETV5 (GeneID 2119)	1	0	-2.4	0.4	-5.3
56	LOC442180	1	2 (active)	19.1	21.2	17
57	OVCA2 (GeneID 124641)	1	0	-0.6	-6.1	4.9
